Literature values as cited in patent US5441985A, “Treatment of lower urinary tract disorders with selective norepinephrine uptake inhibitors” (priority 1993, dated 1995).

Target: cholinergic receptors
Settings: bladder homogenates; read-out: IC50 for displacement of tritiated-quinuclidinol benzoate (QNB) binding; cited from earlier work

CCN(CC)CC#CCOC(=O)C(O)(c1ccccc1)C1CCCCC1 (stereo not shown) [oxybutynin]
IC50: 1400 nM
